In experiment [1] the target is Beclin1 (human (endogenous in SH-SY5Y)) (UniProt Q14457). The experiment can be described thus: co-IP; endogenous proteins in lysate of control SH-SY5Y cells (no rotenone, no transfection); protein A or G agarose/sepharose beads; the precipitating antibody is not given.
The target is the same in experiment [2]. The experiment can be described thus: co-IP; lysate of SH-SY5Y cells treated with rotenone and/or transfected with GFP-HMGB1 or siRNA-HMGB1; protein A or G agarose/sepharose beads; the precipitating antibody is not given.

Protein sequences, listed by entry. Tags and fused reporters are not part of them.
UniProt Q14457: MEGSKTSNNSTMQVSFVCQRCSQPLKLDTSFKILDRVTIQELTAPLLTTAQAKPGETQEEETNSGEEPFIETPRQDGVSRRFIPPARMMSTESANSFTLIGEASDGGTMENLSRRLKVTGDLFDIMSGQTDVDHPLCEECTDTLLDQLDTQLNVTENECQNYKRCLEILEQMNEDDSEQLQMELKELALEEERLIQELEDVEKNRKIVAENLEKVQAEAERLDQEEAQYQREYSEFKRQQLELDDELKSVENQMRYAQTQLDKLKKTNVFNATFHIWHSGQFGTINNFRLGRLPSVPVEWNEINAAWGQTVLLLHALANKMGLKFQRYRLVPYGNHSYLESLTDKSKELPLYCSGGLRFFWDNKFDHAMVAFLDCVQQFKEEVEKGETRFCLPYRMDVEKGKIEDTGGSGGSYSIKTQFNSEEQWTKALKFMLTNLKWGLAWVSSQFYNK
UniProt P09429: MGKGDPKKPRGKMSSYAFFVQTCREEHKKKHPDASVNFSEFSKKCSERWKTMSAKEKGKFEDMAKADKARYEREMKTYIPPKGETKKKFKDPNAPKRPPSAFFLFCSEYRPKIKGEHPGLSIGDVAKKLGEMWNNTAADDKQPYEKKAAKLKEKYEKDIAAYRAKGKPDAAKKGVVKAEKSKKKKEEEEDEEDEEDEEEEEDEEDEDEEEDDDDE

Results are given in words; binding and its absence hold for the method and conditions named. In cells and extracts the contact can be indirect. Some entries that bind do so weakly or less than the wild type.

Regarding “High mobility group box 1 (HMGB1) (from UniProt P09429 1-215)”, the binding result in experiment [1] is reported as “no binding (condition: control cells without rotenone)”; in experiment [2] it was “binds”.

In the case of GFP-HMGB1 (from UniProt P09429 1-215), the binding result in experiment [2] is “binds”.

The values above are taken from paper PMC5281633.
